Measurements from patent US20230295301A1.
No constants are given. Whether binding was seen depends on the method and setting. Some binding calls cover weakened binding; strength is not graded here.

Protein sequences, listed by entry. Tags and fused reporters are not part of them. Lines headed by an entry give the natural chain unless they say otherwise; changes in a name come on top.
UniProt P16410: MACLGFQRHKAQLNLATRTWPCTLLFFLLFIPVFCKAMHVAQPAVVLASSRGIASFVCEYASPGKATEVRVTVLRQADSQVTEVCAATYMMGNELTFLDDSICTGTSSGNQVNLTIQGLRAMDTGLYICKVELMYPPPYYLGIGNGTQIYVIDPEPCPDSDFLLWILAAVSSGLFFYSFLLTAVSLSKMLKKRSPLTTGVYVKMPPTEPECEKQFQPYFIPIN

B1: HuJS007-91 (antibody, V domains shown)
VH: QVQLQESGPGLVKPSQTLSLTCAVSGYSISSGYYWNWIRQPPGKGLEWIGYIGYDGSNYYNPSLKSRITISRDTSKNQFSLKLSSVTAVDTAVYYCARNYYSGYFDSWGQGTTVTVSS
VL: DIVMTQSPDSLAVSLGERATINCKASQNVGTYVAWYQQKPGQPPKPLIYSTSYRYSGVPDRFSGSGSGTDFTLTISSLQAEDVAVYFCHQYDTYPLTFGAGTKLELK
B2: HuJS007-92 (antibody, V domains shown)
VH: QVQLQESGPGLVKPSQTLSLTCAVSGYSISSGYYWNWIRQPPGKGLEWIGYIGYDGSNYYNPSLKSRITISRDTSKNQFSLKLSSVTAVDTAVYYCARNYYSGYFDSWGQGTTVTVSS
VL: DIQMTQSPSSLSASVGDRVTITCRASQNVGTYVAWYQQKPGKVPKPLIYSTSYRYSGVPSRFSGSGSGTDFTLTISSLQPEDVATYFCHQYDTYPLTFGAGTKLELK
B3: HuJS007-93 (antibody, V domains shown)
VH: QVQLQESGPGLVKPSQTLSLTCAVSGYSISSGYYWNWIRQPPGKGLEWIGYIGYDGSNYYNPSLKSRITISRDTSKNQFSLKLSSVTAVDTAVYYCARNYYSGYFDSWGQGTTVTVSS
VL: DIQMTQSPSSLSASVGDRVTITCRASQNVGTYVAWYQQKPGKAPKPLIYSTSYRYSGVPSRFSGSGSGTDFTLTISSLQPEDFATYFCHQYDTYPLTFGAGTKLELK
B4: HuJS007-94 (antibody, V domains shown)
VH: QVQLQESGPGLVKPSQTLSLTCAVSGYSISSGYYWNWIRQPPGKGLEWIGYIGYDGSNYYNPSLKSRITISRDTSKNQFSLKLSSVTAVDTAVYYCARNYYSGYFDSWGQGTTVTVSS
VL: DIQMTQSPSFLSASVGDRVTITCRASQNVGTYVAWYQQKPGKAPKPLIYSTSYRYSGVPSRFSGSGSGTEFTLTISSLQPEDFATYFCHQYDTYPLTFGAGTKLELK
B5: HuJS007-95 (antibody, V domains shown)
VH: QVQLQESGPGLVKPSQTLSLTCAVSGYSISSGYYWNWIRQPPGKGLEWIGYIGYDGSNYYNPSLKSRITISRDTSKNQFSLKLSSVTAVDTAVYYCARNYYSGYFDSWGQGTTVTVSS
VL: DIQMTQSPSSLSASVGDRVTITCQASQNVGTYVAWYQQKPGKAPKPLIYSTSYRYSGVPSRFSGSGSGTDFTFTISSLQPEDIATYFCHQYDTYPLTFGAGTKLELK
B6: HuJS007-96 (antibody, V domains shown)
VH: QVQLQESGPGLVKPSQTLSLTCAVSGYSISSGYYWNWIRQPPGKGLEWIGYIGYDGSNYYNPSLKSRITISRDTSKNQFSLKLSSVTAVDTAVYYCARNYYSGYFDSWGQGTTVTVSS
VL: DIVMTQSPDSLAVSLGERATINCKASQNVGTYVAWYQQKPGQPPKLLIYSTSYRYSGVPDRFSGSGSGTDFTLTISSLQAEDVAVYYCHQYDTYPLTFGQGTKLEIK
B7: HuJS007-97 (antibody, V domains shown)
VH: QVQLQESGPGLVKPSQTLSLTCAVSGYSISSGYYWNWIRQPPGKGLEWIGYIGYDGSNYYNPSLKSRITISRDTSKNQFSLKLSSVTAVDTAVYYCARNYYSGYFDSWGQGTTVTVSS
VL: EIVMTQSPATLSVSPGERATLSCRASQNVGTYVAWYQQKPGQAPRPLIYSTSYRYSGIPARFSGSGSGTEFTLTISSLQSEDFAVYYCHQYDTYPLTFGQGTKLEIK
B8: HuJS007-98 (antibody, V domains shown)
VH: QVQLQESGPGLVKPSQTLSLTCAVSGYSISSGYYWNWIRQPPGKGLEWIGYIGYDGSNYYNPSLKSRITISRDTSKNQFSLKLSSVTAVDTAVYYCARNYYSGYFDSWGQGTTVTVSS
VL: DIVMTQSPDSLAVSLGERATINCKASQNVGTYVAWYQQKPGQPPKPLIYSTSYRYSGVPDRFSGSGSGTDFTLTISSLQAEDVAVYFCHQYDTYPLTFGQGTKLEIK
B9: HuJS007-99 (antibody, V domains shown)
VH: QVQLQESGPGLVKPSQTLSLTCAVSGYSISSGYYWNWIRQPPGKGLEWIGYIGYDGSNYYNPSLKSRITISRDTSKNQFSLKLSSVTAVDTAVYYCARNYYSGYFDSWGQGTTVTVSS
VL: EIVMTQSPATLSVSPGERATLSCKASQNVGTYVAWYQQKPGQAPRPLIYSTSYRYSGIPARFSGSGSGTEFTLTISSLQSEDFAVYFCHQYDTYPLTFGQGTKLEIK
B10: HuJS007-1 (antibody, V domains shown)
VH: QVQLQESGPGLVKPSQTLSLTCTVSGYSISSGYYWNWIRQHPGKGLEWIGYIGYDGSNYYNPSLKSRVTISRDTSKNQFSLKLSSVTAADTAVYFCARNYYSGYFDFWGQGTTLTVSS
VL: DIVMTQSPDSLAVSLGERATINCKASQNVGTYVAWYQQKPGQPPKPLIYSTSYRYSGVPDRFSGSGSGTDFTLTISSLQAEDVAVYFCHQYDTYPLTFGAGTKLELK
B11: HuJS007-2 (antibody, V domains shown)
VH: QVQLQESGPGLVKPSQTLSLTCTVSGYSISSGYYWNWIRQHPGKGLEWIGYIGYDGSNYYNPSLKSRVTISRDTSKNQFSLKLSSVTAADTAVYFCARNYYSGYFDFWGQGTTLTVSS
VL: DIQMTQSPSSLSASVGDRVTITCRASQNVGTYVAWYQQKPGKVPKPLIYSTSYRYSGVPSRFSGSGSGTDFTLTISSLQPEDVATYFCHQYDTYPLTFGAGTKLELK
B12: HuJS007-3 (antibody, V domains shown)
VH: QVQLQESGPGLVKPSQTLSLTCTVSGYSISSGYYWNWIRQHPGKGLEWIGYIGYDGSNYYNPSLKSRVTISRDTSKNQFSLKLSSVTAADTAVYFCARNYYSGYFDFWGQGTTLTVSS
VL: DIQMTQSPSSLSASVGDRVTITCRASQNVGTYVAWYQQKPGKAPKPLIYSTSYRYSGVPSRFSGSGSGTDFTLTISSLQPEDFATYFCHQYDTYPLTFGAGTKLELK
B13: HuJS007-4 (antibody, V domains shown)
VH: QVQLQESGPGLVKPSQTLSLTCTVSGYSISSGYYWNWIRQHPGKGLEWIGYIGYDGSNYYNPSLKSRVTISRDTSKNQFSLKLSSVTAADTAVYFCARNYYSGYFDFWGQGTTLTVSS
VL: DIQMTQSPSFLSASVGDRVTITCRASQNVGTYVAWYQQKPGKAPKPLIYSTSYRYSGVPSRFSGSGSGTEFTLTISSLQPEDFATYFCHQYDTYPLTFGAGTKLELK
B14: HuJS007-5 (antibody, V domains shown)
VH: QVQLQESGPGLVKPSQTLSLTCTVSGYSISSGYYWNWIRQHPGKGLEWIGYIGYDGSNYYNPSLKSRVTISRDTSKNQFSLKLSSVTAADTAVYFCARNYYSGYFDFWGQGTTLTVSS
VL: DIQMTQSPSSLSASVGDRVTITCQASQNVGTYVAWYQQKPGKAPKPLIYSTSYRYSGVPSRFSGSGSGTDFTFTISSLQPEDIATYFCHQYDTYPLTFGAGTKLELK
B15: HuJS007-6 (antibody, V domains shown)
VH: QVQLQESGPGLVKPSQTLSLTCTVSGYSISSGYYWNWIRQHPGKGLEWIGYIGYDGSNYYNPSLKSRVTISRDTSKNQFSLKLSSVTAADTAVYFCARNYYSGYFDFWGQGTTLTVSS
VL: DIVMTQSPDSLAVSLGERATINCKASQNVGTYVAWYQQKPGQPPKLLIYSTSYRYSGVPDRFSGSGSGTDFTLTISSLQAEDVAVYYCHQYDTYPLTFGQGTKLEIK
B16: HuJS007-7 (antibody, V domains shown)
VH: QVQLQESGPGLVKPSQTLSLTCTVSGYSISSGYYWNWIRQHPGKGLEWIGYIGYDGSNYYNPSLKSRVTISRDTSKNQFSLKLSSVTAADTAVYFCARNYYSGYFDFWGQGTTLTVSS
VL: EIVMTQSPATLSVSPGERATLSCRASQNVGTYVAWYQQKPGQAPRPLIYSTSYRYSGIPARFSGSGSGTEFTLTISSLQSEDFAVYYCHQYDTYPLTFGQGTKLEIK
B17: HuJS007-8 (antibody, V domains shown)
VH: QVQLQESGPGLVKPSQTLSLTCTVSGYSISSGYYWNWIRQHPGKGLEWIGYIGYDGSNYYNPSLKSRVTISRDTSKNQFSLKLSSVTAADTAVYFCARNYYSGYFDFWGQGTTLTVSS
VL: DIVMTQSPDSLAVSLGERATINCKASQNVGTYVAWYQQKPGQPPKPLIYSTSYRYSGVPDRFSGSGSGTDFTLTISSLQAEDVAVYFCHQYDTYPLTFGQGTKLEIK
B18: HuJS007-9 (antibody, V domains shown)
VH: QVQLQESGPGLVKPSQTLSLTCTVSGYSISSGYYWNWIRQHPGKGLEWIGYIGYDGSNYYNPSLKSRVTISRDTSKNQFSLKLSSVTAADTAVYFCARNYYSGYFDFWGQGTTLTVSS
VL: EIVMTQSPATLSVSPGERATLSCKASQNVGTYVAWYQQKPGQAPRPLIYSTSYRYSGIPARFSGSGSGTEFTLTISSLQSEDFAVYFCHQYDTYPLTFGQGTKLEIK
B19: HuJS007-10 (antibody, V domains shown)
VH: QVQLQESGPGLVKPSQTLSLTCTVSGYSITSGYYWNWIRQHPGKGLEWIGYIGYDGSNYYNPSLKSRVTISRDTSKNQFSLKLSSVTAADTAVYFCARNYYSGYFDFWGQGTTLTVSS
VL: DIVMTQSPDSLAVSLGERATINCKASQNVGTYVAWYQQKPGQPPKPLIYSTSYRYSGVPDRFSGSGSGTDFTLTISSLQAEDVAVYFCHQYDTYPLTFGAGTKLELK
B20: HuJS007-11 (antibody, V domains shown)
VH: QVQLQESGPGLVKPSQTLSLTCTVSGYSITSGYYWNWIRQHPGKGLEWIGYIGYDGSNYYNPSLKSRVTISRDTSKNQFSLKLSSVTAADTAVYFCARNYYSGYFDFWGQGTTLTVSS
VL: DIQMTQSPSSLSASVGDRVTITCRASQNVGTYVAWYQQKPGKVPKPLIYSTSYRYSGVPSRFSGSGSGTDFTLTISSLQPEDVATYFCHQYDTYPLTFGAGTKLELK
B21: HuJS007-12 (antibody, V domains shown)
VH: QVQLQESGPGLVKPSQTLSLTCTVSGYSITSGYYWNWIRQHPGKGLEWIGYIGYDGSNYYNPSLKSRVTISRDTSKNQFSLKLSSVTAADTAVYFCARNYYSGYFDFWGQGTTLTVSS
VL: DIQMTQSPSSLSASVGDRVTITCRASQNVGTYVAWYQQKPGKAPKPLIYSTSYRYSGVPSRFSGSGSGTDFTLTISSLQPEDFATYFCHQYDTYPLTFGAGTKLELK
B22: HuJS007-13 (antibody, V domains shown)
VH: QVQLQESGPGLVKPSQTLSLTCTVSGYSITSGYYWNWIRQHPGKGLEWIGYIGYDGSNYYNPSLKSRVTISRDTSKNQFSLKLSSVTAADTAVYFCARNYYSGYFDFWGQGTTLTVSS
VL: DIQMTQSPSFLSASVGDRVTITCRASQNVGTYVAWYQQKPGKAPKPLIYSTSYRYSGVPSRFSGSGSGTEFTLTISSLQPEDFATYFCHQYDTYPLTFGAGTKLELK

Target: huCTLA-4 ECD (his-tag) (human) (UniProt P16410)
Experiment: ELISA, coated huCTLA-4 his

| Binder | binding |
| --- | --- |
| B1 | binds |
| B2 | binds |
| B3 | binds |
| B4 | binds |
| B5 | binds |
| B6 | binds |
| B7 | binds |
| B8 | binds |
| B9 | binds |
| B10 | binds |
| B11 | binds |
| B12 | binds |
| B13 | binds |
| B14 | binds |
| B15 | binds |
| B16 | binds |
| B17 | binds |
| B18 | binds |
| B19 | binds |
| B20 | binds |
| B21 | binds |
| B22 | binds |
